Measured data: PubChem BioAssay AID1508588 (Peter MacCallum Cancer Centre, 2020)
In all, the deposit lists about 18,000 reagents; this is a random part of them. Over the whole deposit, 790 (4.4%) got an active call. 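Calls rest on a combination of fold-change classes in drug and vehicle arms, not all shown here.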 Unmarked entries are inactive. No sequences are given here.

- Test: 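Genome-wide search for knock-downs that heighten vemurafenib action in melanoma cells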 (primary screen)
- Cell system: human WM266.4 melanoma cells (BRAF V600 mutant)
- Reagents: siRNA pool against human genes, 40 nM
- Time to read-out: 96 h from transfection to read-out
- Treatment: vemurafenib 300 nM (about IC25), added 48 h after transfection, for 48 h; comparison arm got DMSO vehicle only
- Detection: 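Cell gain (DAPI nuclei at end minus before drug, mean of two replicates) and medium lactate by absorbance per cell, both as ratio to non-targeting siRNA, also grouped into fold-change classes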
- Scale: cell gain with vemurafenib: higher = more cell gain than with non-targeting siRNA; lactate per cell with vemurafenib: higher = more lactate made per cell
- Active means: 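a knock-down counts as enhancing when its fold-change classes with vehicle and with vemurafenib, taken together, show a stronger drug effect on cell gain or lactate per cell; exact class pairs not stated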
- Meaning of the calls: active = enhances vemurafenib effect; inactive = no enhancement seen

With LCE3E (GeneID 353145), what was measured?
cell gain with vemurafenib: 0.4; lactate per cell with vemurafenib: 2.1

What did the screen give for IL27RA (GeneID 9466)?
cell gain with vemurafenib: 0.33; lactate per cell with vemurafenib: 0.66

Which result is listed for GALNTL6 (GeneID 442117)?
cell gain with vemurafenib: 0.75; lactate per cell with vemurafenib: 1.42

Which result is listed for MAT2B (GeneID 27430)?
cell gain with vemurafenib: 0.62; lactate per cell with vemurafenib: 0.9

How did the screen score OR52N2 (GeneID 390077)?
cell gain with vemurafenib: 0.41; lactate per cell with vemurafenib: 0.78

With HEXD (GeneID 284004), what was measured?
cell gain with vemurafenib: 0.59; lactate per cell with vemurafenib: 1.76

How did the screen score HLA-DOB (GeneID 3112)?
cell gain with vemurafenib: 0.81; lactate per cell with vemurafenib: 0.7

For NKX2-5 (GeneID 1482), how do the results read?
cell gain with vemurafenib: 0.96; lactate per cell with vemurafenib: 0.61

How did the screen score CNOT7 (GeneID 29883)?
cell gain with vemurafenib: 0.65; lactate per cell with vemurafenib: 0.94

Which result is listed for TRAM1 (GeneID 23471)?
cell gain with vemurafenib: 0.18 (active); lactate per cell with vemurafenib: 0.4

With SPA17 (GeneID 53340), what does the deposit list?
cell gain with vemurafenib: 0.2; lactate per cell with vemurafenib: 2.44

With ITGB7 (GeneID 3695), what was measured?
cell gain with vemurafenib: 0.49; lactate per cell with vemurafenib: 0.69

What did the screen give for INTS9 (GeneID 55756)?
cell gain with vemurafenib: 0.58; lactate per cell with vemurafenib: 0.9

What is on record for PCOLCE2 (GeneID 26577)?
cell gain with vemurafenib: 0.07; lactate per cell with vemurafenib: 1.94

Which result is listed for PPM1L (GeneID 151742)?
cell gain with vemurafenib: 0.39; lactate per cell with vemurafenib: 1.88

What is on record for OR2T10 (GeneID 127069)?
cell gain with vemurafenib: 0.5; lactate per cell with vemurafenib: 0.64

For GHR (GeneID 2690), what does the deposit list?
cell gain with vemurafenib: 0.27; lactate per cell with vemurafenib: 0.43

For HERC5 (GeneID 51191), how do the results read?
cell gain with vemurafenib: 0.55; lactate per cell with vemurafenib: 0.48

With TAS2R5 (GeneID 54429), what does the deposit list?
cell gain with vemurafenib: 1.07; lactate per cell with vemurafenib: 0.65

What did the screen give for PRAMEF3 (retired record) (GeneID 401940)?
cell gain with vemurafenib: 0.94; lactate per cell with vemurafenib: 0.84

For PSPC1 (GeneID 55269), what does the deposit list?
cell gain with vemurafenib: 0.34; lactate per cell with vemurafenib: 1.12

How did the screen score CTNNBL1 (GeneID 56259)?
cell gain with vemurafenib: 0.81; lactate per cell with vemurafenib: 0.88

What did the screen give for HPCA (GeneID 3208)?
cell gain with vemurafenib: 1.19; lactate per cell with vemurafenib: 0.62

What is on record for HNRNPA0 (GeneID 10949)?
cell gain with vemurafenib: 0.92; lactate per cell with vemurafenib: 1.44

With PIGC (GeneID 5279), what was measured?
cell gain with vemurafenib: 1.09; lactate per cell with vemurafenib: 0.8

For KLHL32 (GeneID 114792), how do the results read?
cell gain with vemurafenib: 0.28; lactate per cell with vemurafenib: 0.61

Which result is listed for PRDM13 (GeneID 59336)?
cell gain with vemurafenib: -0.21; lactate per cell with vemurafenib: 2.48

What did the screen give for ZDHHC14 (GeneID 79683)?
cell gain with vemurafenib: 0.58 (active); lactate per cell with vemurafenib: 0.66

What is on record for SETBP1 (GeneID 26040)?
cell gain with vemurafenib: 0.18; lactate per cell with vemurafenib: 1.25

With CRELD1 (GeneID 78987), how do the results read?
cell gain with vemurafenib: 0.64; lactate per cell with vemurafenib: 0.73

How did the screen score TFRC (GeneID 7037)?
cell gain with vemurafenib: 0.45; lactate per cell with vemurafenib: 1.88

For HARS2 (GeneID 23438), what was measured?
cell gain with vemurafenib: 0.8; lactate per cell with vemurafenib: 1.31

With HTR3D (GeneID 200909), what does the deposit list?
cell gain with vemurafenib: 0.99; lactate per cell with vemurafenib: 0.71

For UBAP1 (GeneID 51271), what does the deposit list?
cell gain with vemurafenib: 0.87 (active); lactate per cell with vemurafenib: 0.63

What is on record for NMI (GeneID 9111)?
cell gain with vemurafenib: 0.64; lactate per cell with vemurafenib: 1.07

How did the screen score MAGEA1 (GeneID 4100)?
cell gain with vemurafenib: 0.94; lactate per cell with vemurafenib: 0.92

With THOC2 (GeneID 57187), what does the deposit list?
cell gain with vemurafenib: 0.64; lactate per cell with vemurafenib: 0.58

How did the screen score CCDC74B (GeneID 91409)?
cell gain with vemurafenib: 0.97; lactate per cell with vemurafenib: 1.31

What did the screen give for GLYATL2 (GeneID 219970)?
cell gain with vemurafenib: 0.61; lactate per cell with vemurafenib: 0.74

With GRIK5 (GeneID 2901), what does the deposit list?
cell gain with vemurafenib: 0.65; lactate per cell with vemurafenib: 1.74

A few values from the list.
Value of THOC2 (GeneID 57187) in “cell gain with vemurafenib”: 0.64
Under “lactate per cell with vemurafenib”, PRAMEF3 (retired record) (GeneID 401940) shows 0.84
Under “cell gain with vemurafenib”, NKX2-5 (GeneID 1482) shows 0.96
